Data taken from paper PMC2908540.
These are yes or no findings as the source states them, for the method shown. For part of these data: Binding seen in cells or lysates may run through a third protein. Some results given as binding are weak or reduced against the parent protein; the word gives no strength. Sequences can lack the tags named with a protein.

T1: FLAG-CP2 (mouse) (UniProt Q9ERA0)
T1 sequence: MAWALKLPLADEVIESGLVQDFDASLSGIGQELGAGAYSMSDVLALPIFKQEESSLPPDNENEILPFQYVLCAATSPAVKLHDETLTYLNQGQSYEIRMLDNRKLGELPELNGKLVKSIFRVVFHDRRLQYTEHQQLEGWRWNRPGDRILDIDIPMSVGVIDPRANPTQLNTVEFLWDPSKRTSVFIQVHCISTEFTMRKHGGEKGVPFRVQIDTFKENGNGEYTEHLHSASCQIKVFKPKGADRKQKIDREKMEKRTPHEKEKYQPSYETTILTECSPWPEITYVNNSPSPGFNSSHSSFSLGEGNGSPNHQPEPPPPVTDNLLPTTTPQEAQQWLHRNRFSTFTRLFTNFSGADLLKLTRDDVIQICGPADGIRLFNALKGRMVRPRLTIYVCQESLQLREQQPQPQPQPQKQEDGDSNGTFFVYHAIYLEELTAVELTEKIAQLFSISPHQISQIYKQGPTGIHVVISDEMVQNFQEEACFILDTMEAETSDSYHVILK

T2: CRTR-1 (mouse) (UniProt Q3UNW5)
T2 sequence: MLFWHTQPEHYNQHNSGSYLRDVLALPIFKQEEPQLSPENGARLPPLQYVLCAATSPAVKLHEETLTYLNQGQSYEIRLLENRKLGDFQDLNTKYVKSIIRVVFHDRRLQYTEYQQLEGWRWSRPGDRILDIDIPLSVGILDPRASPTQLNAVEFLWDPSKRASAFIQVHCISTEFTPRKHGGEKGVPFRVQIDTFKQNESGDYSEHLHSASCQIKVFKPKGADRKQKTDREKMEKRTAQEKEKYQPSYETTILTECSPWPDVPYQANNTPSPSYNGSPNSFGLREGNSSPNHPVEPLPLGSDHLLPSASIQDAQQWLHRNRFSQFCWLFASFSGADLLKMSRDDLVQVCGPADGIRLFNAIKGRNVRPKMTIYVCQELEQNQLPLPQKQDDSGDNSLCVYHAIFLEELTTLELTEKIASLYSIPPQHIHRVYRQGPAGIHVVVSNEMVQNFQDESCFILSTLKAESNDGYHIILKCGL


How the values were obtained:
FLAG-CP2 (mouse) [1] = molecular target: T1, FLAG-CP2 (mouse); experiment: co-IP; HEK293T co-transfected with CRTR-1 and a FLAG-tagged CP2 family member; whole cell lysate (50 mM Tris-HCl pH 7.5, 150 mM NaCl, 10% glycerol, 1% Triton X-100, 10 mM EDTA) precipitated with anti-FLAG M2 and protein-A agarose, 4°C; blotted with anti-CRTR-1 (Figure 3A)
FLAG-CP2 (mouse) [2] = molecular target: T1, FLAG-CP2 (mouse); experiment: native gel or EMSA; nuclear extracts of HEK293T over-expressing CRTR-1 and a CP2 family member, FAM-labelled alpha-globin CP2 response element probe, 4% native polyacrylamide gel, room temperature; heteromer seen as a complex of intermediate mobility on DNA, super-shift with anti-CRTR-1
CRTR-1 (mouse) = molecular target: T2, CRTR-1 (mouse); experiment: co-IP; reciprocal: HEK293T co-transfected with CRTR-1 and a FLAG-tagged CP2 family member; whole cell lysate precipitated with anti-CRTR-1 antibody and protein-A agarose, 4°C; blotted with anti-FLAG (Figure 3B)

binding (FLAG-CP2 (mouse) [1])	binding (FLAG-CP2 (mouse) [2])	binding (CRTR-1 (mouse))	Binder
binds	binds		CRTR-1 (protein, UniProt Q3UNW5 1-479) MLFWHTQPEHYNQHNSGSYLRDVLALPIFKQEEPQLSPENGARLPPLQYVLCAATSPAVKLHEETLTYLNQGQSYEIRLLENRKLGDFQDLNTKYVKSIIRVVFHDRRLQYTEYQQLEGWRWSRPGDRILDIDIPLSVGILDPRASPTQLNAVEFLWDPSKRASAFIQVHCISTEFTPRKHGGEKGVPFRVQIDTFKQNESGDYSEHLHSASCQIKVFKPKGADRKQKTDREKMEKRTAQEKEKYQPSYETTILTECSPWPDVPYQANNTPSPSYNGSPNSFGLREGNSSPNHPVEPLPLGSDHLLPSASIQDAQQWLHRNRFSQFCWLFASFSGADLLKMSRDDLVQVCGPADGIRLFNAIKGRNVRPKMTIYVCQELEQNQLPLPQKQDDSGDNSLCVYHAIFLEELTTLELTEKIASLYSIPPQHIHRVYRQGPAGIHVVVSNEMVQNFQDESCFILSTLKAESNDGYHIILKCGL
		binds	FLAG-CP2 (protein, UniProt Q9ERA0 1-502) MAWALKLPLADEVIESGLVQDFDASLSGIGQELGAGAYSMSDVLALPIFKQEESSLPPDNENEILPFQYVLCAATSPAVKLHDETLTYLNQGQSYEIRMLDNRKLGELPELNGKLVKSIFRVVFHDRRLQYTEHQQLEGWRWNRPGDRILDIDIPMSVGVIDPRANPTQLNTVEFLWDPSKRTSVFIQVHCISTEFTMRKHGGEKGVPFRVQIDTFKENGNGEYTEHLHSASCQIKVFKPKGADRKQKIDREKMEKRTPHEKEKYQPSYETTILTECSPWPEITYVNNSPSPGFNSSHSSFSLGEGNGSPNHQPEPPPPVTDNLLPTTTPQEAQQWLHRNRFSTFTRLFTNFSGADLLKLTRDDVIQICGPADGIRLFNALKGRMVRPRLTIYVCQESLQLREQQPQPQPQPQKQEDGDSNGTFFVYHAIYLEELTAVELTEKIAQLFSISPHQISQIYKQGPTGIHVVISDEMVQNFQEEACFILDTMEAETSDSYHVILK
